Data reported in PMC12170339, “Cryo-EM structure of the NDH–PSI–LHCI supercomplex from Spinacia oleracea” (Nature Structural & Molecular Biology, 2025).
Results are given in words; binding and its absence hold for the method and conditions named. Some binding calls cover weakened binding; strength is not graded here.

Biological target: T1, NdhD (S. oleracea) (UniProt Q9M3J0)
T1 sequence: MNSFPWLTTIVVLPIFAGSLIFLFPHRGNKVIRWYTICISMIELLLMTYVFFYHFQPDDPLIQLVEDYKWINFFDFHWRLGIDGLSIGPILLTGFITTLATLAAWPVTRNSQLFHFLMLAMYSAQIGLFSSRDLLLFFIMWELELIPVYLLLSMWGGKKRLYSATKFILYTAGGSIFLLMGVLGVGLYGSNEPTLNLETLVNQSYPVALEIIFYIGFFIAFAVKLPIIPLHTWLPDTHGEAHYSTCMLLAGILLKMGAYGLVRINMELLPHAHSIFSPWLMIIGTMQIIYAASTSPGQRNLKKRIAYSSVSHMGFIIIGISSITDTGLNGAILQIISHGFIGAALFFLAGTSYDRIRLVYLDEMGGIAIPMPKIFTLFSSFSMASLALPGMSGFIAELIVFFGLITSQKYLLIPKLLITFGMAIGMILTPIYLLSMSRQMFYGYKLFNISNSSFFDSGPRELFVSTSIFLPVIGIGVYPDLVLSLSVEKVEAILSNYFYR
Test: cryo-EM structure; single-particle cryo-EM of the endogenous NDH–PSI–LHCI-2 supercomplex co-purified from spinach stromal lamellae in t-PCCαM; buffer A: 30 mM HEPES pH 7.8, 2 mM MgCl2, 2 mM KCl, 0.5 mM Na2-EDTA, 100 mM NaCl, 2 mM DTT, 0.04% t-PCCαM; 38,385 particles; 3.0–3.3 Å; both purified

binding: binds
B1: NdhB (protein, UniProt A0ABD8EXD1 1-510)
chain: MIWHVQNENFILDSTRIFMKAFHLLLFDGSLIFPECILIFGLILLLMIDSTSDQKDIPWLYFISSTSLVMSITALLFRWREEPMISFSGNFQTNNFNEIFQFLILLCSTLCIPLSVEYIECTEMALTEFLLFILTATLGGMFLCGANDLITIFVAPECFSLCSYLLSGYTKKDVRSNEATTKYLLMGGASSSILVHGFSWLYGSSGGEIELQEIVNGLINTQMYNSPGISIALIFITVGIGFKLSPAPSHQWTPDVYEGSPTPVVAFLSVTSKVAASASATRIFDIPFYFSSNEWHLLLEILAILSMILGNLIAITQTSMKRMLAYSSIGQIGYVIIGIIVGDSNDGYASMITYMLFYISMNLGTFACIVLFGLRTGTDNIRDYAGLYTKDPFLALSLALCLLSLGGLPPLAGFFGKIYLFWCGWQAGLYFLVLIGLLTSVLSIYYYLKIIKLLMTGRNQEITPHVRNYRRSPLRSKNSIEFSMIVCVIASTIPGISMNPIITIAQDTLF
